Earlier results as cited in patent publication US6436649B1, “Method for detecting and/or quantifying a hapten in a homogeneous phase and device for implementation thereof” (priority 1996, dated 2002).

Chains of the proteins cited; added tags and fusions are not shown. Residues count along the entry.
UniProt P05193, 21-381: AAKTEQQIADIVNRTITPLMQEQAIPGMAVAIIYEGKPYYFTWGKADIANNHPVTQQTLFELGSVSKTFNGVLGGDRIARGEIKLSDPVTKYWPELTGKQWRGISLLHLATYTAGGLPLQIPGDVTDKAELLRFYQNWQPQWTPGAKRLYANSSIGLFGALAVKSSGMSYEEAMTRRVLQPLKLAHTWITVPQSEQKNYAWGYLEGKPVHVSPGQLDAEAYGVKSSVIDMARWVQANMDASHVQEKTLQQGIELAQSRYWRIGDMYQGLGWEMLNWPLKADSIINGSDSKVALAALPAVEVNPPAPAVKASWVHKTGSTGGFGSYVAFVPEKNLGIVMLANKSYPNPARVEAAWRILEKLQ

Molecular target: Citro.F. β-lactamase (Citrobacter freundii, UniProt P05193)
Conditions: enzyme Citro.F.; cited from earlier work

CC1=C(C(=O)O)N2C(=O)[C@@H](NC(=O)[C@H](N)c3ccccc3)[C@H]2SC1 [Cephalexin]
Km: 12 µM | kcat: 170 S^−1
